Taken from: PubChem BioAssay AID1508597 (Cure First, 2020)

Purpose: 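Genes whose silencing sensitises or protects ovarian cancer cells against rucaparib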 (primary screen)
System: human ovarian carcinoma lines grown from tumours: OCI-P5x (papillary serous) and OCI-C5x (clear cell)
Reagents: siRNA pool against human genes, 1.25 pmol siRNA per well
Duration: 72 h or 96 h, depending on the cell culture
Conditions: rucaparib 20 µM (about IC30) or vehicle, present until read-out
Measured: 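ATP luminescence measured at 72 or 96 h according to the culture, then normalised and expressed as percent viability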
Scale: viability, normalised: higher = more viable cells remaining
Rule for the call: 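a well counts as a hit if its normalised viability is under 80 percent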
Meaning of the calls: active = viability under 80%; inactive = viability 80% or more
This is an unselected part of about 2,100 reagents tested. 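Calls flag viability under 80% in either arm, not effects specific to rucaparib; the reference for percent is not stated.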 A reagent listed more than once was tested more than once; the source does not tell the runs apart. Reagent sequences are not shown. Not given: the 100% reference.

no.	gene	rucaparib or vehicle	cell line	technical replicate	viability, normalised (%)	Call
1	SLC16A2 (GeneID 6567)	Rucaparib	OCI-C5x (clear cell)	1	45.3	active
2	SLC16A2 (GeneID 6567)	Rucaparib	OCI-C5x (clear cell)	2	46.6	active
3	SLC16A2 (GeneID 6567)	Rucaparib	OCI-C5x (clear cell)	3	40.7	active
4	SLC16A2 (GeneID 6567)	Rucaparib	OCI-P5x (serous)	1	36.9	active
5	SLC16A2 (GeneID 6567)	Rucaparib	OCI-P5x (serous)	2	39.2	active
6	SLC16A2 (GeneID 6567)	Rucaparib	OCI-P5x (serous)	3	43.4	active
7	SLC16A2 (GeneID 6567)	Vehicle	OCI-C5x (clear cell)	1	56.6	active
8	SLC16A2 (GeneID 6567)	Vehicle	OCI-C5x (clear cell)	2	55.8	active
9	SLC16A2 (GeneID 6567)	Vehicle	OCI-C5x (clear cell)	3	45.8	active
10	SLC16A2 (GeneID 6567)	Vehicle	OCI-P5x (serous)	1	53.1	active
11	SLC16A2 (GeneID 6567)	Vehicle	OCI-P5x (serous)	2	54.9	active
12	SLC16A2 (GeneID 6567)	Vehicle	OCI-P5x (serous)	3	65.9	active
13	DDX21 (GeneID 9188)	Rucaparib	OCI-C5x (clear cell)	1	55.8	active
14	DDX21 (GeneID 9188)	Rucaparib	OCI-C5x (clear cell)	1	57.7	active
15	DDX21 (GeneID 9188)	Rucaparib	OCI-C5x (clear cell)	2	54.2	active
16	DDX21 (GeneID 9188)	Rucaparib	OCI-C5x (clear cell)	2	38.3	active
17	DDX21 (GeneID 9188)	Rucaparib	OCI-C5x (clear cell)	3	62.6	active
18	DDX21 (GeneID 9188)	Rucaparib	OCI-C5x (clear cell)	3	48	active
19	DDX21 (GeneID 9188)	Rucaparib	OCI-P5x (serous)	1	71.7	active
20	DDX21 (GeneID 9188)	Rucaparib	OCI-P5x (serous)	1	52.7	active
21	DDX21 (GeneID 9188)	Rucaparib	OCI-P5x (serous)	2	74.7	active
22	DDX21 (GeneID 9188)	Rucaparib	OCI-P5x (serous)	2	82.3	inactive
23	DDX21 (GeneID 9188)	Rucaparib	OCI-P5x (serous)	3	74.3	active
24	DDX21 (GeneID 9188)	Rucaparib	OCI-P5x (serous)	3	68.6	active
25	DDX21 (GeneID 9188)	Vehicle	OCI-C5x (clear cell)	1	50.8	active
26	DDX21 (GeneID 9188)	Vehicle	OCI-C5x (clear cell)	1	38.5	active
27	DDX21 (GeneID 9188)	Vehicle	OCI-C5x (clear cell)	2	46.6	active
28	DDX21 (GeneID 9188)	Vehicle	OCI-C5x (clear cell)	2	43.9	active
29	DDX21 (GeneID 9188)	Vehicle	OCI-C5x (clear cell)	3	57.2	active
30	DDX21 (GeneID 9188)	Vehicle	OCI-C5x (clear cell)	3	46.6	active
31	DDX21 (GeneID 9188)	Vehicle	OCI-P5x (serous)	1	81.4	inactive
32	DDX21 (GeneID 9188)	Vehicle	OCI-P5x (serous)	1	64.3	active
33	DDX21 (GeneID 9188)	Vehicle	OCI-P5x (serous)	2	65.6	active
34	DDX21 (GeneID 9188)	Vehicle	OCI-P5x (serous)	2	83.5	inactive
35	DDX21 (GeneID 9188)	Vehicle	OCI-P5x (serous)	3	77.7	active
36	DDX21 (GeneID 9188)	Vehicle	OCI-P5x (serous)	3	64.6	active

Reprinted from above, 3 entries:
no.	gene	rucaparib or vehicle	cell line	technical replicate	viability, normalised (%)	Call
15	DDX21 (GeneID 9188)	Rucaparib	OCI-C5x (clear cell)	2	54.2	active
16	DDX21 (GeneID 9188)	Rucaparib	OCI-C5x (clear cell)	2	38.3	active
17	DDX21 (GeneID 9188)	Rucaparib	OCI-C5x (clear cell)	3	62.6	active
